Measured values as given in article PMC11461026.
No constants are given. Whether binding was seen depends on the method and setting. Where a sequence is shown, tags or fusion partners need not be part of it.

B1: CONSTITUTIVE ACTIVE DEFENSE 1 (CAD1), Gal4AD-tagged (protein, UniProt Q9C7N2 1-561)
chain: MENRKGGNFSVPSSEALTTTLRNAIQALGRGFDVTSDVRLLYCKGAPGSRLVRIEEGQNRDLELSHGFLLPNVPADIDCSRGNSGTQRISVCSFHEMAEEFNVRSGVKGNIPLGCFNAMFNYTGSWQVDAASTKSLALVGYFIPLYDVKLAKLTLVLHNEIRRAVPSSWDPASLASFIENYGTHIVTSVTIGGRDVVYIRQHQSSPLPVSEIENYVNDMIKHRFHEAESQSITGPLKYKDKDITVIFRRRGGDDLEQSHARWAETVPAAPDIINMTFTPIVSLLEGVPGLRHLTRAIELYLEYKPPIEDLQYFLDYQIARAWAPEQSNLQRKEPVCSSLQFSLMGPKLFISADQVTVGRKPVTGLRLSLEGSKQNRLSIHLQHLVSLPKILQPHWDSHVPIGAPKWQGPEEQDSRWFEPIKWKNFSHVSTSPIEHTETHIGDLSGVHIVTGAQLGVWDFGSKNVLHLKLLFSKVPGCTIRRSVWDHTPVASSGRLEPGGPSTSSSTEEVSGQSGKLAKIVDSSEMLKGPQDLPGHWLVTGAKLGVEKGKIVLRVKYSLLNY
B2: NECROTIC SPOTTED LESIONS 1 (NSL1), Gal4AD-tagged (protein, UniProt Q9SGN6 1-612)
chain: MAFNNFTRLDAHSAAEKAVSVIGLGYDLCSDVRFSACKTTPDGSRLVEIDPTRNRDLIFPGGIVVNNVSSSIKCDKGERTRLRSDILSFNQMSEKFNQDMCLSGKIPSGMFNNMFAFSKCWPKDASSVKTLAYDGWFISLYSVEIVRKQLTLRDEVKREVPSSWDSAALAGFIEKYGTHVVVGVTMGGKDVIHVKQMRKSNHEPEEIQKMLKHWGDERFCVDPVESKSPASVYSGKPKEENLLQWGLQPFGTSVSSAVVMHTKNEEIMRVCIRRGGVDLGQSHERWLSTVSQAPNVISMCFVPITSLLSGLPGTGFLSHAVNLYLRYKPPIEELHQFLEFQLPRQWAPVYGDLPLGLRRSKQSSPSLQFSLMGPKLYVNTSKVDSGERPVTGLRFFLEGKKGNHLAIHLQHLSACPPSLHLSHDDTYEPIEEPVEKGYYVPVKWGIFSHVCTYPVQYNGARSDDTASIVTKAWLEVKGMGMRKVLFLRLGFSLDASAVTRKSCWDNLSTNSRKSGVFSMISTRLSTGLSPNPATTKPQSKIDINSAVYPRGPSPPVKPKLLSLVDTKEVMRGPEEQPGYWVVTGAKLCVEAGKISIKAKYSLLTVISEDSLV

Key:
[1] = target: T1, Pseudomonas syringae pv. tomato DC3000 effector HopK1, Gal4BD-tagged (Pseudomonas syringae pv. tomato DC3000) (UniProt Q88BH0); assay: two-hybrid; AH109 yeast co-transformed with Gal4-DB effector baits (pDEST-DB) and Gal4-AD Arabidopsis preys (pDEST22); growth on -LWH against -LW plates, 30 C, three days; pairwise screen and dilution series
T1 sequence: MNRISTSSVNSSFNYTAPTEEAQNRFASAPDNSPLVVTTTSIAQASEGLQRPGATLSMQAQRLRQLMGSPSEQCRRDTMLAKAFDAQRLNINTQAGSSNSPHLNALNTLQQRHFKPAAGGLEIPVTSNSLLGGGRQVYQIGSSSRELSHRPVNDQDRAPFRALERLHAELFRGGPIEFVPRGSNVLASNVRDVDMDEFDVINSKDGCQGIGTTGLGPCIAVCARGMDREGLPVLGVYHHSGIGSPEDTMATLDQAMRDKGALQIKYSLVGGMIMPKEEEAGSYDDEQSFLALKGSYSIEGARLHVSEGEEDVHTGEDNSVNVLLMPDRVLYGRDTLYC

[2] = target: Pseudomonas syringae pv. tomato DC3000 effector HopP1, Gal4BD-tagged (Pseudomonas syringae pv. tomato DC3000) (UniProt Q882F0); assay: as above

Binder	binding [1]	binding [2]
B1	no binding	no binding
B2	no binding	no binding
